These are literature values, as cited in patent publication US9492376B2, “Polymer-conjugated albumin hydrogels for controlled release of therapeutic agents” (TECHNION RESEARCH AND DEVELOPMENT FOUNDATION LTD., priority 2008, dated 2016).

Sequences of proteins named here, by UniProt entry; tags and fusion partners are left off. Residues count along the entry.
UniProt P02768, 25-609: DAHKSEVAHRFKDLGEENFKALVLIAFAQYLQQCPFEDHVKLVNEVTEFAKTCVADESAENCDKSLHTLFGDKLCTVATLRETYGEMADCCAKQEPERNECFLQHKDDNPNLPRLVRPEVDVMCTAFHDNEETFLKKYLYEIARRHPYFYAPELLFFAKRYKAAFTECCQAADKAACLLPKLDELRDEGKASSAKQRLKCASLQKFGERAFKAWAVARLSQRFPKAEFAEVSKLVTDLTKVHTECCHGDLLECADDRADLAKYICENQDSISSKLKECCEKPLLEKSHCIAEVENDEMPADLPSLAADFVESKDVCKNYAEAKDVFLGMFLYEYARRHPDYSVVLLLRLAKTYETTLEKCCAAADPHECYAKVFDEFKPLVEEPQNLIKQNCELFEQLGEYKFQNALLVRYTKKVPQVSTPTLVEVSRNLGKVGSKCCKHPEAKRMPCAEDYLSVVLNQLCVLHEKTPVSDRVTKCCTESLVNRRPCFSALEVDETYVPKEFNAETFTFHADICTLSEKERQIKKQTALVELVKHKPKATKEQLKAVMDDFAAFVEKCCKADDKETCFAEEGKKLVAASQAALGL

The target of this series is serum albumin (Homo sapiens, UniProt P02768). Particulars: literature; cited from earlier work.

For the compound `COc1ccc2cc([C@H](C)C(=O)O)ccc2c1` [Naproxen], the “Ka, binding to serum albumin” value was 1.6-3.7×10^6 M^−1.
